For 2 molecules, binding results are on record in patent publication US20150266968A1 (COMPLIX, published 2015).

Protein sequences, listed by entry. Tags and fused reporters are not part of them. Lines headed by an entry give the natural chain unless they say otherwise; changes in a name come on top. Residues count along the entry.
UniProt Q07817, residues 1-209: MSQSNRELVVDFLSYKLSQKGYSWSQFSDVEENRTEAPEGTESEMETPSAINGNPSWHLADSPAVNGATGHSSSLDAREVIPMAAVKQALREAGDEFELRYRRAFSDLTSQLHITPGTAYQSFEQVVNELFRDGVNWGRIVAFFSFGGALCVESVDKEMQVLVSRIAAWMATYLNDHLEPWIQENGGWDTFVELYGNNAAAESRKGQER
UniProt P10415, residues 1-207: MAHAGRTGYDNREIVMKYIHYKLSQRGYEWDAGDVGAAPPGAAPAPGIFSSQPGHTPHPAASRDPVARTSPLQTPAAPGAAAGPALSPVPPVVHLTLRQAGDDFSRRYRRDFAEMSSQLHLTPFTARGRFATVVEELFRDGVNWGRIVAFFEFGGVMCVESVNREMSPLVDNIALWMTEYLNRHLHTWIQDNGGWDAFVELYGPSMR

Assay [1] addresses GST-tagged recombinant human BCL-XL with a C terminal deletion of 24 amino acids (human) (UniProt Q07817). The assay is described as follows: ELISA; Alphabody (500 nM) captured by anti-V5 antibody, five-fold dilutions of GST-tagged protein, anti-GST-HRP detection. On the technique in general: An ELISA detects its analyte on a solid surface through an enzyme-linked reagent.
For assay [2], the target named is GST-tagged recombinant human BCL-2 isoform alpha (BCL-2a) with a C-terminal deletion of 32 amino acids (human) (UniProt P10415). Described as above.
For assay [3] the target is unchanged. The experiment in a line: ELISA: Alphabody (500 nM) captured by immobilized anti-V5 antibody, five-fold dilutions of GST-BCL-2a, detection with anti-GST-HRP, OD read at 492 nm and 630 nm.
In assay [4] the target is GST-tagged recombinant human BCL-XL with a C terminal deletion of 24 amino acids (human) (UniProt Q07817). The experiment in a line: condition: 1000 nM (end of the drawn line; last visible marker at about 8 nM); ELISA: Alphabody (500 nM) captured by immobilized anti-V5 antibody, five-fold dilutions of GST-BCL-XL, detection with anti-GST-HRP, OD read at 492 nm and 630 nm.

These are yes or no findings as the source states them, for the method shown. Tags and fused reporters may be left off the sequences shown.

B1: Alphabody MB23_hiR-V5 (designed binder)
chain: MSIEQIQKEITTIQEVIAAIQKYIYTMTGGSGGSGGMSIQQIQAAIRRIQRAIRRIQRAIRRMTGSGGGGSGMSIEEIQKQIAAIQEQIVAIYKQIMAMASHHHHHHGKPIPNPLLGLDST
notes: Cationized Alphabody directed against IL-23, with His-tag and V5 tag; Used as control in the BCL-2 family ELISA; also called cationized MB23; control Alphabody MB23-hiR-V5
Regarding B1, the binding entry is on record as “no binding” in assay [1], “no binding” in assay [2], “no binding (tested: 8 nM)” in assay [3] and “no binding” in assay [4].

B2: Alphabody AB1_A2aF_hiKR3-V5 (designed binder)
chain: MSIQQIQKQFKRIQKQIKRIEKQIKRMTGGSGGSGGMSIEEITKQIAAIQLRIVGDQVQIYAMTGGSGGGSGGGSGGGSGGSIEEIKKSIRAIQKEIKKIQKKIKKMTPHHHHHHHHHHGKPIPNPLLGLDST
Consider B2, for which the binding entry in assay [2] and in assay [3] was “no binding” in each case.
